Experimental data published in PubChem BioAssay AID2551 (National Center for Advancing Translational Sciences (NCATS), 2010).
Values joined by “and” are separate entries in the source; they are usually repeats but may differ in a detail not shown here. Equal entries are not always repeated. Screen size: about 310,000 compounds; about 17,000 (5.5%) were called active. Inconclusive results, whose numbers are uncertain, are shown with a selection of clear calls. Calls come from the whole dose curve; as a rule, active = well fitted inhibition curve with a large enough effect; inconclusive = small, poorly fitted or top-dose-only effect, or effect the other way; inactive = no such curve, though single readings can be large or run the other way. Potencies beside an inconclusive call are fits to weak or partial responses and may not hold up.
% is set by controls: 0 for no effect and ±100 for the full control effect; potency is the fitted concentration of half-maximal effect.
Note: nearly all actives have a fitted effect of over 60% in size.

By UniProt entry, the sequences of proteins in these tests, tags left out. Where a name states a change or a piece, a line headed by the entry shows the natural chain unless it says otherwise.
UniProt P51450: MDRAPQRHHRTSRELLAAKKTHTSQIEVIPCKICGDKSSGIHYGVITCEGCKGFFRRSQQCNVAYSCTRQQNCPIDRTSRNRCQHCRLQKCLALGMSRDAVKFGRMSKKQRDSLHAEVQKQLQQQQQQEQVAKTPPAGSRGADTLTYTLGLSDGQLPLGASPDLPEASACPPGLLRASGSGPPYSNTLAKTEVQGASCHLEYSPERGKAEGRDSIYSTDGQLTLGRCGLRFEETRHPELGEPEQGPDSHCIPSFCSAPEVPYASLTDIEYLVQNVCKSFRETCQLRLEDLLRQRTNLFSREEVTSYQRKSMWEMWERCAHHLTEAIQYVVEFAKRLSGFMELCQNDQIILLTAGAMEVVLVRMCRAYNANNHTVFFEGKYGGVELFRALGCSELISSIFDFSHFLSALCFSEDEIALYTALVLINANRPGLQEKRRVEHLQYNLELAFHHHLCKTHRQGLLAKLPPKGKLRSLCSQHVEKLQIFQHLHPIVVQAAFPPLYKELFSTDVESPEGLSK

The molecules below were run against Nuclear receptor ROR-gamma (Mus musculus) (UniProt P51450) (assay: qHTS for inhibitors of ROR gamma transcriptional activity). Details: Drosophila S2 Gal4-RORgamma UAS-luciferase reporter, 20 h; activity change, negative = inhibition: at 53.6 µM (top of the series).
Excerpt: NIH Molecular Libraries Probe Production Network [MLPCN] NIH Chemical Genomics Center [NCGC] MLPCN Grant: R03 DA026211-01 Assay Provider: Dan Littman, New York University Assay Overview: The retinoic acid-related orphan receptor (ROR) gamma is a transcription factor that has a central role in the differentiation of Th17 cells, a subset of T helper cells that secrete the inflammatory cytokines IL-17, IL-17F, and IL-22. Th17 cells have been implicated in graft versus host disease, autoimmune disease and asthma. ROR gamma is induced in naive T helper cells in the presence of TGF-beta combined with IL-6, IL-21, or IL-23, and thereafter directs the expression of the Th17 lineage cytokines. To study the mechanism of action of ROR gamma, an insect cell-based assay was screened. This Drosophila Schneider cell line was stably transfected with two vectors: a gene expressing a fusion of the Gal4 DNA binding domain and ROR gamma transactivation domain under the control of the metallothionine promoter and a Photinus luciferase reporter regulated by the Gal4 binding site enhancer, UAS. […] Small molecule inhibitors of ROR gamma activity are detected by a decrease in luciferase reporter activity.
Assay Protocol Summary: For screening, 600 cells in 4 uL/well were dispensed into white solid 1536-well plates (Grenier) using a solenoid-based dispenser. Following transfer of 23 nL compound or DMSO vehicle by a pin tool, the plates were incubated 1 hr at ambient temperature, and 1 uL/well copper sulfate (700 uM final concentration) was added. The plates were centrifuged 15 s at 1000 RPM and incubated 20 hr at ambient temperature. After addition of 1.5 uL Photinus luciferase detection reagent, the plates were incubated 10 min at ambient temperature and then read by an ViewLux (Perkin Elmer) to detect luminescence. Keywords: NIH Roadmap, MLPCN, MLI, MLSMR, qHTS, NCGC, qHTS, nuclear hormone receptor, retinoic acid-related orphan receptor, ROR gamma
With `Cc1ccc(N2CCN(c3ccc(NCc4nc5ccccc5n4C)cc3)CC2)cc1` the Potency was active: 11.2 µM. With `Cc1cc(C(=O)N2CCN(c3ncccn3)CC2)c(C)o1` the Potency was active: 22.4 µM. For `COc1cccc(Cn2c(=O)c(-c3ccc(F)cc3)nc3cnc(N(C)C)nc32)c1`, the Potency was “inactive”. In the case of `O=c1c2c3c(sc2[nH]c(=S)n1Cc1ccco1)CCC3`, the Potency is reported as inconclusive: 4.47 µM [inhibitor, single point]. `CCCC[C@@H]1C[C@H]1C(NC(=O)c1cccs1)c1ccc(Cl)cc1` (some centres undefined) was tested, and the Potency was inconclusive: 25.1 µM [inhibitor, single point]. `Cc1cccc(C(=O)Nc2ccc(NC(=O)CN3CCOCC3)cc2)c1` was tested, and the Potency was “inactive”. `COc1ccc(-c2nc3cc(C)ccn3c2NCc2ccc3c(c2)OCO3)cc1` was tested, and the Potency was active: 7.08 µM. `CC(=O)c1cn(N(C)c2ncc(C(F)(F)F)cc2Cl)c(=O)[nH]c1=O` was tested, and the Potency was inconclusive: 12.6 µM [inhibitor, single point]. In the case of `O=C(O)C1C2C=CC(O2)C1C(=O)Nc1ccc(S(=O)(=O)Nc2ccccc2)cc1` (centres undefined), the Potency is reported as inconclusive: 35.5 µM [inhibitor, single point]. With `COc1cc(-c2cc(N)n(S(=O)(=O)c3ccc(F)cc3)n2)cc(OC)c1OC` the Potency was inconclusive: 12.6 µM [activator, partial curve]. With `COc1ccc(/C=N\NC(=O)c2ccccc2Br)cc1COc1c(F)c(F)cc(F)c1F` the Potency was inconclusive: 10 µM [activator, partial curve, poor fit]. `S=C(Nc1ccc(Cl)c(Cl)c1)N1CCCC1` was tested, and the Potency was inconclusive: 11.2 µM [inhibitor, partial curve]. In the case of `O=C(O)c1oc2ccccc2c1CSCc1ccccc1`, the Potency is reported as “inactive”. For `O=C1OCCN1C(=O)[C@H]1[C@H](c2ccc(Cl)cc2)C(c2cccc(Cl)c2)=NN1c1ccccc1`, the Potency was inconclusive: 35.5 µM [activator, single point]. In the case of `O=C(NCc1ccc(F)cc1)NC(=O)c1ccc(Cl)cc1`, the Potency is reported as inconclusive: 17.8 µM [inhibitor, single point]. `O=C(COC(=O)c1cccs1)Nc1ccccc1C(F)(F)F` was tested, and the Potency was inconclusive: 11.2 µM [inhibitor, single point]. With `Cc1ccc(NC(=O)c2ccc(CSc3nnc(-c4ccncc4)n3C)cc2)cc1` the Potency was “inactive”. With `O=C(Nc1ccc(Br)cc1)c1ccc(F)c(S(=O)(=O)NCc2cccs2)c1` the Potency was inconclusive: 35.5 µM [inhibitor, single point]. `CCN(c1ccccc1)S(=O)(=O)c1cc(C(=O)Nc2ccc(F)c(F)c2)ccc1F` was tested, and the Potency was inconclusive: 35.5 µM [inhibitor, single point]. In the case of `O=C(CCn1cnc2ccccc21)N=Nc1c(O)[nH]c2ccccc12`, the Potency is reported as inconclusive: 0.141 µM [activator, full curve, poor fit]. `CC(=O)N1c2c(cc(Br)cc2S(=O)(=O)N2CCOCC2)CC1C` (centres undefined) was tested, and the Potency was inconclusive: 0.794 µM [inhibitor, single point]. With `O=C(CCl)Nc1cccc(S(=O)(=O)N2CCCCCC2)c1` the Potency was active: 35.5 µM. For `CC(C)(C)c1ccc(C(=O)OCCNC(=O)c2c(Cl)nc3ccccn23)cc1`, the Potency was inconclusive: 35.5 µM [activator, single point]. `CC1CCN(c2nc3ccccc3n2CC(=O)c2ccccc2)CC1` was tested, and the Potency was inconclusive: 15.8 µM [inhibitor, single point]. `Oc1nc(Nc2ccc(F)cc2)sc1/C=C1\C=Nc2ccccc21` was tested, and the Potency was inconclusive: 35.5 µM [activator, single point]. In the case of `CCCC/C=C/[C@H](c1ccccc1)[C@H](CO)Cc1ccc([N+](=O)[O-])cc1`, the Potency is reported as inconclusive: 35.5 µM [inhibitor, single point]. In the case of `Cc1cc(Cl)ccc1Nc1ncccc1C(N)=O`, the Potency is reported as inconclusive: 12.6 µM [activator, partial curve]. With `COc1c(Cl)cccc1-c1cn2ccc(C)cc2n1` the Potency was inconclusive: 7.08 µM [inhibitor, partial curve]. In the case of `Cc1cc(C)n2c(SCc3ccc(Br)cc3)nnc2n1`, the Potency is reported as inconclusive: 5.62 µM [activator, partial curve, poor fit]. `Cc1ccccc1OCCn1c(=S)[nH]c2c(N)ncnc21` was tested, and the Potency was inconclusive: 35.5 µM [inhibitor, single point]. `CC(NC(=S)Nc1ccccc1C(F)(F)F)C1CC2CCC1C2` (centres undefined) was tested, and the Potency was active: 3.16 µM. `COc1ccc(C(=O)/C=C/c2ccc(OC3CSC3)cc2)cc1` was tested, and the Potency was inconclusive: 35.5 µM [inhibitor, single point]. In the case of `Cc1ccc(OC(C)C(=O)Nc2ccncc2)cc1` (centres undefined), the Potency is reported as inconclusive: 12.6 µM [activator, single point]. With `CCCCNC(=O)Nc1c(C)cc(SC#N)cc1C` the Potency was inconclusive: 10 µM [inhibitor, partial curve, poor fit]. In the case of `Cn1nc(C(=O)NCc2ccc(Cl)cc2)c2c1-c1ccccc1S(=O)(=O)C2`, the Potency is reported as “inactive”. For `CO[C@@H]1COC(=O)[C@H]2CCCN2C(=O)[C@@H](C)COC(=O)C/C=C\[C@H]1C`, the activity change, negative = inhibition was inactive: 3.49% [at 10 µM]. In the case of `CN(C)S(=O)(=O)c1ccc(NC(=O)c2cc(F)c(F)cc2Cl)cc1`, the Potency is reported as inconclusive: 10 µM [activator, partial curve]. `Cc1cc(OC(=O)c2cccc(F)c2)c([N+](=O)[O-])c(=O)[nH]1` was tested, and the Potency was “inactive”. In the case of `Cc1cc(C(=O)Nc2nc3c(s2)CCCC3)cs1`, the Potency is reported as inconclusive: 2.51 µM [inhibitor, partial curve, poor fit]. For `C=CCSc1nc(N)c(C(=O)Nc2ccccc2)cc1C#N`, the Potency was “inactive”. For `COc1ccccc1N1CCN(C(=O)CSc2nnc3c4ccccc4n(CC(=O)O)c3n2)CC1`, the Potency was inconclusive: 35.5 µM [activator, single point]. With `COCCN1CCN(c2cc(-c3ccccc3)nc3cc(-c4cccc(F)c4)nn23)CC1` the Potency was inconclusive: 14.1 µM [activator, single point]. With `Cc1nc2c(-c3ccccc3)cnn2c(N2CCOCC2)c1C` the Potency was inconclusive: 15.8 µM [inhibitor, single point]. With `COc1ccc2c(=O)c(-c3ccc4c(c3)OCO4)coc2c1` the Potency was inconclusive: 7.94 µM [inhibitor, partial curve] and inconclusive: 25.1 µM [inhibitor, single point].
